Experimental data from article PMC11432245.
No constants are given. Whether binding was seen depends on the method and setting. In cells and extracts the contact can be indirect. Some binding calls cover weakened binding; strength is not graded here.

Amino acid sequences for entries named in this document (tags omitted).
UniProt Q9BSM1: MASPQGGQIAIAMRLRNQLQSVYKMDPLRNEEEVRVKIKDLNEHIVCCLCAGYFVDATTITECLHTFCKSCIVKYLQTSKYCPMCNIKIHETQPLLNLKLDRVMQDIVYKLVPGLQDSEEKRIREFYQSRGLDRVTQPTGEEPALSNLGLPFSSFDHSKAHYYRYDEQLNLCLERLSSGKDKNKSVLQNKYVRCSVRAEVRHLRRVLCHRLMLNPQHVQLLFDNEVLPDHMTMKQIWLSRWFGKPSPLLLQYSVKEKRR
UniProt P35226: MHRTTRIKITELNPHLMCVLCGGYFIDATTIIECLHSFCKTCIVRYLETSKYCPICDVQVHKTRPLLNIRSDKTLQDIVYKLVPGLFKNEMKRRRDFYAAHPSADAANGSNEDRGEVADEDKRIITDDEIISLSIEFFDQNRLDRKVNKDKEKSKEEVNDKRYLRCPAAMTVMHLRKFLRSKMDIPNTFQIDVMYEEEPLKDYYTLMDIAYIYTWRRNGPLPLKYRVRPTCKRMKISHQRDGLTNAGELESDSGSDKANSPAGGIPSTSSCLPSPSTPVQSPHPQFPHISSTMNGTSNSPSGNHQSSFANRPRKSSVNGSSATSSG
UniProt Q06587: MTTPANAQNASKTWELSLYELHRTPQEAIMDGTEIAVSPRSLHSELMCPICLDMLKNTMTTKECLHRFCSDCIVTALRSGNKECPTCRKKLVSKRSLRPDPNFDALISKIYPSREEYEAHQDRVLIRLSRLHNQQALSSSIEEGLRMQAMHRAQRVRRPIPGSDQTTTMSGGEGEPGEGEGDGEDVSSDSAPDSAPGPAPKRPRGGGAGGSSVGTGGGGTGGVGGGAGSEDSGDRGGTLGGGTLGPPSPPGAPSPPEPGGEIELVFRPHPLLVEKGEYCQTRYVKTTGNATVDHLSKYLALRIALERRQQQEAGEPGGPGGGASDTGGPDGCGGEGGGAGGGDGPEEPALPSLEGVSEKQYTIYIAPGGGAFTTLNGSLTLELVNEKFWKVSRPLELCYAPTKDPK
UniProt Q99496: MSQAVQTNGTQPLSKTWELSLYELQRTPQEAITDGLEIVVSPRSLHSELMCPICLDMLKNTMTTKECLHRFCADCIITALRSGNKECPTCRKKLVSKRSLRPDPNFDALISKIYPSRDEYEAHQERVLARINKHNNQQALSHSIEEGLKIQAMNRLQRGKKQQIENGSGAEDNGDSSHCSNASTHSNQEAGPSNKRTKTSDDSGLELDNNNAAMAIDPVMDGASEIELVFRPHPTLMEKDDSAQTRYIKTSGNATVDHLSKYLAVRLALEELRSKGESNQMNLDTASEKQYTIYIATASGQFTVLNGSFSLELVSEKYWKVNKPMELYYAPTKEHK

Legend:
Test in all cases: co-IP; endogenous proteins; antibody against the bait crosslinked to Protein A beads, incubated with NT2 nuclear lysate with 250 U/mL benzonase at 4 °C overnight, washed five times in Buffer C100 with 0.02% Nonidet P-40; eluate analysed by immunoblotting
[1] = molecular target: PCGF1 (human (endogenous in NT2)) (UniProt Q9BSM1)
[2] = molecular target: T1, PCGF2 (human (endogenous in NT2)) (UniProt P35227)
T1 sequence: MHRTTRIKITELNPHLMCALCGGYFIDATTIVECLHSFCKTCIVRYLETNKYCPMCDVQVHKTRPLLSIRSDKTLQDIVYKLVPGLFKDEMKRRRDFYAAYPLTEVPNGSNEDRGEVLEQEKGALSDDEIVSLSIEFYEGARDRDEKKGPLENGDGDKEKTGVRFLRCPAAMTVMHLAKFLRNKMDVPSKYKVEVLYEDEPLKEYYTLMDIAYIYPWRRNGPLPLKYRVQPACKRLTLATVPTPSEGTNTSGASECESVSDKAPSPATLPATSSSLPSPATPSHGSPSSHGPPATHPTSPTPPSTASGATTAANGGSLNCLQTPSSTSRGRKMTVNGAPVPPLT

[3] = molecular target: PCGF4/BMI1 (human (endogenous in NT2)) (UniProt P35226)

binding [1]	binding [2]	binding [3]	Substance
binds	binds	binds	RING1A (from UniProt Q06587 1-406)
	binds		RNF2/RING1B (from UniProt Q99496 1-336)
